The results in this text go back to publication PMC4872741.

The chains behind the UniProt entries cited, without tags or fusion partners.
UniProt Q16659: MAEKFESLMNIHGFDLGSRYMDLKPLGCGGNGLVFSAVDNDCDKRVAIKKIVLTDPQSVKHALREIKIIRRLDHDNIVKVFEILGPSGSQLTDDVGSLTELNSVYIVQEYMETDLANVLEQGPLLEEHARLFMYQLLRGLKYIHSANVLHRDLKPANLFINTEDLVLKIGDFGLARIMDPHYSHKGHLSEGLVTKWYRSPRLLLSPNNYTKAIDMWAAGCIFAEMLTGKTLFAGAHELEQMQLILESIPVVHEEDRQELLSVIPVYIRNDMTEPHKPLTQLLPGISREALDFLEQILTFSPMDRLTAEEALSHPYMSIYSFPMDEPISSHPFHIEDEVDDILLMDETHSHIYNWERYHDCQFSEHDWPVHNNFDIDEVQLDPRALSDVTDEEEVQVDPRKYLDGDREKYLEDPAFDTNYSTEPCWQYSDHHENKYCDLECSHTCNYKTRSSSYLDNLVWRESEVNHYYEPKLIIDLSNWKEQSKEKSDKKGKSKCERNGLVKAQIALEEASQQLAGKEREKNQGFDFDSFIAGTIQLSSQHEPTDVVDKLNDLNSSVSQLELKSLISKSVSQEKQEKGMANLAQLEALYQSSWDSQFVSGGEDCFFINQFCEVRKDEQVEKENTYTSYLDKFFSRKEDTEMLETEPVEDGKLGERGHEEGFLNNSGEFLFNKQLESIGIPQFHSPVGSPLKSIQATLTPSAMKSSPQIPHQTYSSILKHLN

These are yes or no findings as the source states them, for the method shown. In cells and extracts the contact can be indirect. Some binding calls cover weakened binding; strength is not graded here.

The target of assay [1] is T1, Tyrosyl DNA phosphodiesterase 2 (TDP2) (human (endogenous in H460)) (UniProt O95551).
T1 sequence: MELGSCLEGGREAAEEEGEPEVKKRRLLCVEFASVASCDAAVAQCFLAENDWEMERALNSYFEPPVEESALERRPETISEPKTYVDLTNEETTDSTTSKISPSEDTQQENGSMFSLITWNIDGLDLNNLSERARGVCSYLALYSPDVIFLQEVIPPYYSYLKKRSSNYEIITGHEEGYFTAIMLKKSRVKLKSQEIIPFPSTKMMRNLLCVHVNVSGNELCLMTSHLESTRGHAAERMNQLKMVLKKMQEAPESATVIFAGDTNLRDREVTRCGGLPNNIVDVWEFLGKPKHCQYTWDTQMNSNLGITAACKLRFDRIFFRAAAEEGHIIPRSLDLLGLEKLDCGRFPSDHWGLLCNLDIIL
Description: co-IP; 1 mg H460 total lysate (EBC buffer: 50 mM Tris pH 7.5, 150 mM NaCl, 0.5% NP-40); IP with 2 ug TDP2 antibody, ERK3 antibody or normal rabbit IgG, protein A/G agarose, 4°C; Western blotting. In general terms: A western blot detects proteins with antibodies after separation by electrophoresis.

Assay [2] has as its target Extracellular signal-regulated kinase 3 (ERK3) (human (endogenous in H460)) (UniProt Q16659). The assay is described as above.

With “Extracellular signal-regulated kinase 3 (ERK3) (from UniProt Q16659 1-721)”, the binding result in assay [1] is recorded as “binds”.

B1: Tyrosyl DNA phosphodiesterase 2 (TDP2) (protein, UniProt O95551 1-362)
chain: T1 sequence
For the molecule B1, the binding result in assay [2] is “binds”.
